Laboratory results published in PMC4764573.

Amino acid sequences for entries named in this document (tags omitted).
UniProt Q6P5F9: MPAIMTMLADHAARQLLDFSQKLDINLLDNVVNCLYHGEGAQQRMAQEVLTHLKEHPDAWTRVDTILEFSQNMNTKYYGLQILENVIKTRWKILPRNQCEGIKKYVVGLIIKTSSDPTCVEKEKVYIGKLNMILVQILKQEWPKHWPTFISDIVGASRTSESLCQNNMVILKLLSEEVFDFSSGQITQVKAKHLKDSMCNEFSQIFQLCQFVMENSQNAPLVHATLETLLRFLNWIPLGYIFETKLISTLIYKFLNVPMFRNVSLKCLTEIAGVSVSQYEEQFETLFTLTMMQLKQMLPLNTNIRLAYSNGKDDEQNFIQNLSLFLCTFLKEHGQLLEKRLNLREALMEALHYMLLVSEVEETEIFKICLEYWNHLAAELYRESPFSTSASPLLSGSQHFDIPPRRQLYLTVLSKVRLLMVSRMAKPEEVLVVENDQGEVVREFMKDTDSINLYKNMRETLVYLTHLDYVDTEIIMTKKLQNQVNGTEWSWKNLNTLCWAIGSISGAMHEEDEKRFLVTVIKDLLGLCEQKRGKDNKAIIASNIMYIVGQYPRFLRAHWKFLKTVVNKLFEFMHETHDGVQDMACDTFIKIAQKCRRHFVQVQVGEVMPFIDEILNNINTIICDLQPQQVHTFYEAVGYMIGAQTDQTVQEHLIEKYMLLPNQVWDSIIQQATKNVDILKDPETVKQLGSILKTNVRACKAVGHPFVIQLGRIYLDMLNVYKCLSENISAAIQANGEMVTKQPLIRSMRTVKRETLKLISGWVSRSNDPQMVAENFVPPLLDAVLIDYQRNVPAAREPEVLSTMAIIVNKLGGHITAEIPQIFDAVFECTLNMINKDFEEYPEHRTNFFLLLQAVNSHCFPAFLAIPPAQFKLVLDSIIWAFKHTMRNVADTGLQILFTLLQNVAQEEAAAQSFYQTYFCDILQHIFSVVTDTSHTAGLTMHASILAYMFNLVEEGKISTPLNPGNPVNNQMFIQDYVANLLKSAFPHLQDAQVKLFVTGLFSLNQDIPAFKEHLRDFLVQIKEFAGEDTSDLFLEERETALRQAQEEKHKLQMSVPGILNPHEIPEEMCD

B1: CDC37L (HeLa extract) (protein, UniProt Q7L3B6 1-337)
chain: MEQPWPPPGPWSLPRAEGEAEEESDFDVFPSSPRCPQLPGGGAQMYSHGIELACQKQKEFVKSSVACKWNLAEAQQKLGSLALHNSESLDQEHAKAQTAVSELRQREEEWRQKEEALVQREKMCLWSTDAISKDVFNKSFINQDKRKDTEDEDKSESFMQKYEQKIRHFGMLSRWDDSQRFLSDHPYLVCEETAKYLILWCFHLEAEKKGALMEQIAHQAVVMQFIMEMAKNCNVDPRGCFRLFFQKAKAEEEGYFEAFKNELEAFKSRVRLYSQSQSFQPMTVQNHVPHSGVGSIGLLESLPQNPDYLQYSISTALCSLNSVVHKEDDEPKMMDTV
B2: human PEX19 (HeLa extract) (protein, UniProt P40855 1-299)
chain: MAAAEEGCSVGAEADRELEELLESALDDFDKAKPSPAPPSTTTAPDASGPQKRSPGDTAKDALFASQEKFFQELFDSELASQATAEFEKAMKELAEEEPHLVEQFQKLSEAAGRVGSDMTSQQEFTSCLKETLSGLAKNATDLQNSSMSEEELTKAMEGLGMDEGDGEGNILPIMQSIMQNLLSKDVLYPSLKEITEKYPEWLQSHRESLPPEQFEKYQEQHSVMCKICEQFEAETPTDSETTQKARFEMVLDLMQQLQDLGHPPKELAGEMPPGLNFDLDALNLSGPPGASGEQCLIM
B3: human Cys tRNA ligase (HeLa extract) (enzyme, UniProt P49589 1-748)
chain: MADSSGQQGKGRRVQPQWSPPAGTQPCRLHLYNSLTRNKEVFIPQDGKKVTWYCCGPTVYDASHMGHARSYISFDILRRVLKDYFKFDVFYCMNITDIDDKIIKRARQNHLFEQYREKRPEAAQLLEDVQAALKPFSVKLNETTDPDKKQMLERIQHAVQLATEPLEKAVQSRLTGEEVNSCVEVLLEEAKDLLSDWLDSTLGCDVTDNSIFSKLPKFWEGDFHRDMEALNVLPPDVLTRVSEYVPEIVNFVQKIVDNGYGYVSNGSVYFDTAKFASSEKHSYGKLVPEAVGDQKALQEGEGDLSISADRLSEKRSPNDFALWKASKPGEPSWPCPWGKGRPGWHIECSAMAGTLLGASMDIHGGGFDLRFPHHDNELAQSEAYFENDCWVRYFLHTGHLTIAGCKMSKSLKNFITIKDALKKHSARQLRLAFLMHSWKDTLDYSSNTMESALQYEKFLNEFFLNVKDILRAPVDITGQFEKWGEEEAELNKNFYDKKTAIHKALCDNVDTRTVMEEMRALVSQCNLYMAARKAVRKRPNQALLENIALYLTHMLKIFGAVEEDSSLGFPVGGPGTSLSLEATVMPYLQVLSEFREGVRKIAREQKVPEILQLSDALRDNILPELGVRFEDHEGLPTVVKLVDRNTLLKEREEKRRVEEEKRKKKEEAARRKQEQEAAKLAKMKIPPSEMFLSETDKYSKFDENGLPTHDMEGKELSKGQAKKLKKLFEAQEKLYKEYLQMAQNGSFQ
B4: m7GpppX diphosphatase (HeLa extract) (enzyme, UniProt Q96C86 1-337)
chain: MADAAPQLGKRKRELDVEEAHAASTEEKEAGVGNGTCAPVRLPFSGFRLQKVLRESARDKIIFLHGKVNEASGDGDGEDAVVILEKTPFQVEQVAQLLTGSPELQLQFSNDIYSTYHLFPPRQLNDVKTTVVYPATEKHLQKYLRQDLRLIRETGDDYRNITLPHLESQSLSIQWVYNILDKKAEADRIVFENPDPSDGFVLIPDLKWNQQQLDDLYLIAICHRRGIRSLRDLTPEHLPLLRNILHQGQEAILQRYRMKGDHLRVYLHYLPSYYHLHVHFTALGFEAPGSGVERAHLLAEVIENLECDPRHYQQRTLTFALRADDPLLKLLQEAQQS

biological target: mmCRM1 (mouse CRM1), biotinylated version carrying an Avi-tag (mouse) (UniProt Q6P5F9); experiment: affinity purification with mass spectrometry; as a1, with cytosolic HeLa S100 extract on immobilised CRM1 (taken as mmCRM1), with 5 μM RanGTP (hsRanQ69L^5-180); only the target purified

For B1, which binding is on record?
The binding was “binds”.

With B2 as the binder, how does the binding read?
The binding was “binds”.

How did the binding turn out when B3 was run?
The binding was “no binding”.

Which binding does the source give for B4 here?
Its binding is “no binding”.

Results are given in words; binding and its absence hold for the method and conditions named. In cells and extracts the contact can be indirect. Here binding means that the protein was enriched with, or labelled near, the bait; the list need not be complete. No binding means not detected with the bait.
